This note sets out measurements from article PMC11633487.

Protein sequences, listed by entry. Tags and fused reporters are not part of them.
UniProt Q9UMS4: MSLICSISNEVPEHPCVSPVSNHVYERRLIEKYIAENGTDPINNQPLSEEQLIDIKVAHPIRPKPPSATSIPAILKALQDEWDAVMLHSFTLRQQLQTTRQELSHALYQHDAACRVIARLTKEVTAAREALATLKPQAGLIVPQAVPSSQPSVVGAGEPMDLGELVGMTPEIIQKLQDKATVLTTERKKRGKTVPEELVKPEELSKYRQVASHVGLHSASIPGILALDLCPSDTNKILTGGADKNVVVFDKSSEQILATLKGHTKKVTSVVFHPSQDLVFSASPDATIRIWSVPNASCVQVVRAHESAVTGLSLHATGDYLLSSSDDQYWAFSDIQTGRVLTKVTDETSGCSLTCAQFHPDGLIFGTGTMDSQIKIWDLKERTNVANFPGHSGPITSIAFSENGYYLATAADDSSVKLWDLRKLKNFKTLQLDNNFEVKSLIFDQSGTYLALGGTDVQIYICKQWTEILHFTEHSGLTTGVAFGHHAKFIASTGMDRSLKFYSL
UniProt P17844: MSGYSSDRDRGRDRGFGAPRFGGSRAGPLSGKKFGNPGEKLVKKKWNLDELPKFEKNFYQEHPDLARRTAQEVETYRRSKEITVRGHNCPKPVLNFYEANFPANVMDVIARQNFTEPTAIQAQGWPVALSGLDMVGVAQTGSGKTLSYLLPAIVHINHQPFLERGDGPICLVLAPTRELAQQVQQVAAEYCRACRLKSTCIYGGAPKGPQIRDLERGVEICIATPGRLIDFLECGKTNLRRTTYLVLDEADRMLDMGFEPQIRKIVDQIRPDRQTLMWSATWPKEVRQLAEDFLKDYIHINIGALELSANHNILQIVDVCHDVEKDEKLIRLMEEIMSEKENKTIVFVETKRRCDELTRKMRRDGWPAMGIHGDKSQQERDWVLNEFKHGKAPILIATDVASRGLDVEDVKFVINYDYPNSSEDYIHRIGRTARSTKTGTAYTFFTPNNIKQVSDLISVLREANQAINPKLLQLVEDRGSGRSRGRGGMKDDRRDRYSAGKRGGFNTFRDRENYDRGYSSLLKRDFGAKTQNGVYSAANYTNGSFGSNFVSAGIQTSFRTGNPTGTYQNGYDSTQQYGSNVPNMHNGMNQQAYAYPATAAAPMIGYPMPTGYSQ

The target in the experiment is Pre-mRNA processing factor 19 (PRP19), endogenous in HCC cells (not stated (endogenous in HCC cells; human Huh7, PLC/PRF/5 or mouse Hepa1-6)) (UniProt Q9UMS4). Nature of the experiment: affinity purification with mass spectrometry; HCC cell lysates immunoprecipitated with anti-PRP19 (Santa Cruz, 1:100) or control IgG overnight at 4 °C, Protein A magnetic beads 2 h at room temperature; silver-stained gel bands analysed by LC-MS/MS.

No constants are given. Whether binding was seen depends on the method and setting. Binding seen in cells or lysates may run through a third protein. Here binding means that the protein was enriched with, or labelled near, the bait; the list need not be complete.

Regarding “DEAD-box helicase 5 (DDX5), endogenous in HCC cells (from UniProt P17844 1-614)”, the binding result is listed as “binds”.
